PubChem BioAssay AID1159579, Peter MacCallum Cancer Centre – 2015
Screen: 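Find genes whose silencing alters migration of lymphatic endothelial cells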 (follow-up of hits). Cells: human dermal lymphatic endothelial cells. Reagent: single siRNA against human genes, 25 nM. Measured: 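Scratch wound imaging measuring area filled by moving cells plus nuclei number, averaged over two wells and scaled to mock-transfected controls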. Reading the numbers: migration relative to mock: higher = more migration into the scratch; mean nuclei count: higher = more cells remaining. Rule for the call: 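a ratio of at most 0.6 or at least 1.3 marks altered migration and an active call; a mean nuclei count under 3300 forces an inactive call regardless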. Calls: active = migration changed (impaired or accelerated); inactive = no migration change, or too few cells.
The deposit covers about 2,000 reagents; shown is a part drawn at random. In the full data, 549 (27%) got an active call. 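Some migration ratios are negative; siRNAs with too few cells are inactive whatever their migration ratio.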 The numbers tell different reagents against one gene apart. Further read-outs or replicates are left out here. Reagent sequences are not shown. The record does not give: the time to read-out.

| Gene | siRNA no. | migration relative to mock | mean nuclei count | activity call |
| --- | --- | --- | --- | --- |
| USP25 (ubiquitin specific peptidase 25) | 1 | -0.14 | 4163 | active |
| USP25 (ubiquitin specific peptidase 25) | 2 | -0.71 | 2474 | inactive |
| USP25 (ubiquitin specific peptidase 25) | 3 | 0.26 | 4314 | active |
| USP25 (ubiquitin specific peptidase 25) | 4 | 0.82 | 5592 | inactive |
| STK36 (serine/threonine kinase 36) | 1 | 0.6 | 4700 | active |
| STK36 (serine/threonine kinase 36) | 2 | 0.84 | 6368 | inactive |
| STK36 (serine/threonine kinase 36) | 3 | 0.54 | 7310 | active |
| STK36 (serine/threonine kinase 36) | 4 | 0.68 | 5448 | inactive |
| RANBP3L (RAN binding protein 3 like) | 1 | 0.43 | 5538 | active |
| RANBP3L (RAN binding protein 3 like) | 2 | 0.82 | 6360 | inactive |
| RANBP3L (RAN binding protein 3 like) | 3 | 0.08 | 4798 | active |
| RANBP3L (RAN binding protein 3 like) | 4 | 0.99 | 5173 | inactive |
| CYP1A1 (cytochrome P450 family 1 subfamily A member 1) | 1 | 0.74 | 5774 | inactive |
| CYP1A1 (cytochrome P450 family 1 subfamily A member 1) | 2 | 0.42 | 3897 | active |
| CYP1A1 (cytochrome P450 family 1 subfamily A member 1) | 3 | 0.8 | 5665 | inactive |
| CYP1A1 (cytochrome P450 family 1 subfamily A member 1) | 4 | 0.38 | 5866 | active |
| ADNP2 (ADNP homeobox 2) | 1 | 1.04 | 6244 | inactive |
| ADNP2 (ADNP homeobox 2) | 2 | 0.76 | 4102 | inactive |
| ADNP2 (ADNP homeobox 2) | 3 | 0.82 | 5246 | inactive |
| ADNP2 (ADNP homeobox 2) | 4 | 0.82 | 5184 | inactive |
| TTLL3 (tubulin tyrosine ligase like 3) | 1 | -1.21 | 3450 | active |
| TTLL3 (tubulin tyrosine ligase like 3) | 2 | 0.76 | 7274 | inactive |
| TTLL3 (tubulin tyrosine ligase like 3) | 3 | 0.94 | 4689 | inactive |
| TTLL3 (tubulin tyrosine ligase like 3) | 4 | 0.52 | 6075 | active |
| ITPR1 (inositol 1,4,5-trisphosphate receptor type 1) | 1 | 0.74 | 6116 | inactive |
| ITPR1 (inositol 1,4,5-trisphosphate receptor type 1) | 2 | 1.29 | 5744 | inactive |
| ITPR1 (inositol 1,4,5-trisphosphate receptor type 1) | 3 | 0.94 | 6135 | inactive |
| ITPR1 (inositol 1,4,5-trisphosphate receptor type 1) | 4 | 0.88 | 4962 | inactive |
| ZNF559 (zinc finger protein 559) | 1 | 0.87 | 5542 | inactive |
| ZNF559 (zinc finger protein 559) | 2 | 1.05 | 6426 | inactive |
| ZNF559 (zinc finger protein 559) | 3 | 0.83 | 5659 | inactive |
| ZNF559 (zinc finger protein 559) | 4 | 0.7 | 4622 | inactive |
| CDKL5 (cyclin dependent kinase like 5) | 1 | 0.73 | 6932 | inactive |
| CDKL5 (cyclin dependent kinase like 5) | 2 | 1.06 | 6410 | inactive |
| CDKL5 (cyclin dependent kinase like 5) | 3 | 0.63 | 5848 | inactive |
| CDKL5 (cyclin dependent kinase like 5) | 4 | 1.17 | 6673 | inactive |
| EPHA6 (EPH receptor A6) | 1 | 0.7 | 4714 | inactive |
| EPHA6 (EPH receptor A6) | 2 | -0.07 | 3023 | inactive |
| EPHA6 (EPH receptor A6) | 3 | 0.18 | 4130 | active |
| EPHA6 (EPH receptor A6) | 4 | 0.92 | 5924 | inactive |
| ATRAID (all-trans retinoic acid induced differentiation factor) | 1 | 0.47 | 4044 | active |
| ATRAID (all-trans retinoic acid induced differentiation factor) | 2 | 0.8 | 5668 | inactive |
| ATRAID (all-trans retinoic acid induced differentiation factor) | 3 | 0.59 | 4826 | active |
| ATRAID (all-trans retinoic acid induced differentiation factor) | 4 | 0.34 | 5070 | active |

A run of entries of the results above, as a working copy:
| Gene | siRNA no. | migration relative to mock | mean nuclei count | activity call |
| --- | --- | --- | --- | --- |
| CDKL5 (cyclin dependent kinase like 5) | 4 | 1.17 | 6673 | inactive |
| EPHA6 (EPH receptor A6) | 1 | 0.7 | 4714 | inactive |
| EPHA6 (EPH receptor A6) | 2 | -0.07 | 3023 | inactive |
| EPHA6 (EPH receptor A6) | 3 | 0.18 | 4130 | active |
| EPHA6 (EPH receptor A6) | 4 | 0.92 | 5924 | inactive |
| ATRAID (all-trans retinoic acid induced differentiation factor) | 1 | 0.47 | 4044 | active |

More results follow.
| Gene | siRNA no. | migration relative to mock | mean nuclei count | activity call |
| --- | --- | --- | --- | --- |
| GRHL1 (grainyhead like transcription factor 1) | 1 | -0.03 | 3636 | active |
| GRHL1 (grainyhead like transcription factor 1) | 2 | 0.46 | 3072 | inactive |
| GRHL1 (grainyhead like transcription factor 1) | 3 | 0.92 | 6597 | inactive |
| GRHL1 (grainyhead like transcription factor 1) | 4 | 0.56 | 4390 | active |
| PLXDC2 (plexin domain containing 2) | 1 | 1.1 | 6264 | inactive |
| PLXDC2 (plexin domain containing 2) | 2 | 0.77 | 4758 | inactive |
| PLXDC2 (plexin domain containing 2) | 3 | 0.7 | 4621 | inactive |
| PLXDC2 (plexin domain containing 2) | 4 | 0.86 | 4794 | inactive |
| CKM (creatine kinase, M-type) | 1 | 0.42 | 6183 | active |
| CKM (creatine kinase, M-type) | 2 | 0.29 | 3438 | active |
| CKM (creatine kinase, M-type) | 3 | 0.88 | 5248 | inactive |
| CKM (creatine kinase, M-type) | 4 | 0.64 | 4877 | inactive |
| SELPLG (selectin P ligand) | 1 | 1.09 | 5894 | inactive |
| SELPLG (selectin P ligand) | 2 | 0.47 | 5192 | active |
| SELPLG (selectin P ligand) | 3 | 0.71 | 4972 | inactive |
| SELPLG (selectin P ligand) | 4 | 0.3 | 4112 | active |
| GRB10 (growth factor receptor bound protein 10) | 1 | 0.48 | 3626 | active |
| GRB10 (growth factor receptor bound protein 10) | 2 | 1.23 | 6418 | inactive |
| GRB10 (growth factor receptor bound protein 10) | 3 | 0.78 | 5416 | inactive |
| GRB10 (growth factor receptor bound protein 10) | 4 | 1.28 | 5160 | inactive |
| MATK (megakaryocyte-associated tyrosine kinase) | 1 | 0.68 | 5343 | inactive |
| MATK (megakaryocyte-associated tyrosine kinase) | 2 | 0.84 | 5172 | inactive |
| MATK (megakaryocyte-associated tyrosine kinase) | 3 | 0.46 | 4443 | active |
| MATK (megakaryocyte-associated tyrosine kinase) | 4 | 1.04 | 6338 | inactive |
